Laboratory results taken from PMC10334471, “Tumor-targeted dual-action NSAID-platinum(IV) anticancer prodrugs” (Inorganic Chemistry Frontiers, 2023).

System: colorectal cancer cell lines
Assay: Cellular platinum levels by ICP-MS
Assay type: cell-based
Settings: 10 μM, 2 h

Row | SMILES | Fold higher intracellular platinum levels than Ox(OAc)2 (in most of the tested cell lines) [fold] | Cellular uptake compared to oxaliplatin (ICP-MS)
1 | CC(=O)Oc1ccccc1C(=O)[O][Pt-2]12([O]C(C)=O)([NH2+][C@@H]3CCCC[C@H]3[NH2+]1)[O]C(=O)C(=O)[O]2 [OxAsaOAc, (OC-6-44)-acetato(2-acetoxybenzoato)[(1R,2R)-1,2-cyclohexanediamino]oxalatoplatinum(IV)] | ~2 | –
2 | CC(=O)[O][Pt-2]12([O]C(C)=O)([NH2+][C@@H]3CCCC[C@H]3[NH2+]1)[O]C(=O)C(=O)[O]2 [Ox(OAc)2] | – | distinctly decreased cellular uptake
